Reference: article PMC12454742

Amino acid sequences for entries named in this document (tags omitted). A change or cut given only in a name is not applied to a line headed by its entry.
UniProt Q94AY3: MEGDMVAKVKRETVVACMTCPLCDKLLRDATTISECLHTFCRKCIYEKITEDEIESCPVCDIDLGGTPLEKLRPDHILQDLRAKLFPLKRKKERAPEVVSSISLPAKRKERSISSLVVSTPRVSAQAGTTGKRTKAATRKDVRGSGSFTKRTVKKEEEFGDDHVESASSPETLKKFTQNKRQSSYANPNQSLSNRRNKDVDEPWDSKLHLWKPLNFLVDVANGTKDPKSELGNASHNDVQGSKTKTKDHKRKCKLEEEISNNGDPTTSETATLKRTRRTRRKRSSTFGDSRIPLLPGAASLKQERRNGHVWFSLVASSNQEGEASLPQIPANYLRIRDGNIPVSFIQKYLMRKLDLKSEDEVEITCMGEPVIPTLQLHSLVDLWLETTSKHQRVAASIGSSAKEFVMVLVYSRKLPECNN
UniProt Q9M9Y4: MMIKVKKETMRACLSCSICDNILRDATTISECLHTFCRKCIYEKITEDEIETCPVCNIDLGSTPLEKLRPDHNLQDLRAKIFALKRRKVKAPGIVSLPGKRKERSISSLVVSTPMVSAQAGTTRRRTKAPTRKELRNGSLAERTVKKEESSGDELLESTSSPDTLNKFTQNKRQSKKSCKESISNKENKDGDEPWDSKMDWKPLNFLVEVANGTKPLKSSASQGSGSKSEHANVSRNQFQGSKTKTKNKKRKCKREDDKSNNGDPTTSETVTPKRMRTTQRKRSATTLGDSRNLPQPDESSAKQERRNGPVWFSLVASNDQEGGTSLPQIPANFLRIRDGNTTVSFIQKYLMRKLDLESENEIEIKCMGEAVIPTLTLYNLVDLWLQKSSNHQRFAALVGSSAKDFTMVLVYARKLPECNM
UniProt Q9LS86: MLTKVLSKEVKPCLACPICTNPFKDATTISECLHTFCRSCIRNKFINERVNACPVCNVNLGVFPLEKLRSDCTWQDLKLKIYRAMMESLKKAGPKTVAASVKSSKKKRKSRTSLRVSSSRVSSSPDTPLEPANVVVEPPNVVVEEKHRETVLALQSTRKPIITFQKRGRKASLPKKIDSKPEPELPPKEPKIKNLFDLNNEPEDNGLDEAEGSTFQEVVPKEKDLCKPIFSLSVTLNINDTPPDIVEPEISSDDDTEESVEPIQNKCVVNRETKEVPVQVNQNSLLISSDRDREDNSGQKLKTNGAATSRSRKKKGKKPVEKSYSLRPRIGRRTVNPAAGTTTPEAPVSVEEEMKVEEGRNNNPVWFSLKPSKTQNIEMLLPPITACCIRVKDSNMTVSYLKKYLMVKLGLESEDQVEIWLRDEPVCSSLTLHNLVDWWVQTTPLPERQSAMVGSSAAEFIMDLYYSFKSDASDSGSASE

T1: GFP-CAP-H2 (Arabidopsis thaliana) (UniProt Q9LUR0)
T1 sequence: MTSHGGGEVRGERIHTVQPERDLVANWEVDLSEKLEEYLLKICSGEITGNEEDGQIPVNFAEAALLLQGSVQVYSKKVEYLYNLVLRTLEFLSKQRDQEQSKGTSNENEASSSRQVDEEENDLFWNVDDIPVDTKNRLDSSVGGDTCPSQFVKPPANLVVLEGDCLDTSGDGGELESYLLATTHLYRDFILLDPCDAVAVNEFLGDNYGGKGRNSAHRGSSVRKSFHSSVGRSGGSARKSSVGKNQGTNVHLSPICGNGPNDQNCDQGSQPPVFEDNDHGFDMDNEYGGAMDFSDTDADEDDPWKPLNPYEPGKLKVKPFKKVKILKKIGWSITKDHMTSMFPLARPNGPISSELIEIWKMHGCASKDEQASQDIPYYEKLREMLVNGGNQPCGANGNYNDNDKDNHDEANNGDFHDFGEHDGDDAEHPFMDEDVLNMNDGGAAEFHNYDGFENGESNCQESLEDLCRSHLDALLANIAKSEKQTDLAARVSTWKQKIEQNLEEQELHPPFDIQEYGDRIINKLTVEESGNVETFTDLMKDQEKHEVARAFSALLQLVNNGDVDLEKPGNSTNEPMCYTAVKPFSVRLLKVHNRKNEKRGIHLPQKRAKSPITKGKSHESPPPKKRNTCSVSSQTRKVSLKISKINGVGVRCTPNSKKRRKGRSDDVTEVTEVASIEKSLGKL

T2: GFP-CAP-H (Arabidopsis thaliana) (UniProt Q564K3)
T2 sequence: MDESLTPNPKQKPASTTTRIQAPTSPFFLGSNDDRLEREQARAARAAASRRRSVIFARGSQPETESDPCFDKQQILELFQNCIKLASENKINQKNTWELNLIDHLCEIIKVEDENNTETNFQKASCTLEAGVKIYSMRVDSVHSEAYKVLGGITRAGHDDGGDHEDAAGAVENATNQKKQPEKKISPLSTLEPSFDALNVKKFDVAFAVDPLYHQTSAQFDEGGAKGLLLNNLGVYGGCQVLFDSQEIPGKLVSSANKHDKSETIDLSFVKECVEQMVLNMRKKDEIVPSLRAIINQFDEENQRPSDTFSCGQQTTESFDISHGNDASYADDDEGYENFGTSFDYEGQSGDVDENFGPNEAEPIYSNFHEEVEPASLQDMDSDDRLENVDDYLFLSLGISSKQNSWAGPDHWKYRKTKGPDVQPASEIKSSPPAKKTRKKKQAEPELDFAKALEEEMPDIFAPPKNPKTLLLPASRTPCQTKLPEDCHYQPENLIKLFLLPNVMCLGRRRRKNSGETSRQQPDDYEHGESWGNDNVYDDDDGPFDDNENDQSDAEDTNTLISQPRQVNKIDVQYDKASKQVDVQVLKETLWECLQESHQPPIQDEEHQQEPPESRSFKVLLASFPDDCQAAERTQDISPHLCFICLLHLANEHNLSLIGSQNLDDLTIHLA


What was measured:
[1] = molecular target: T1, GFP-CAP-H2 (Arabidopsis thaliana); test: co-IP; lysate of Nicotiana benthamiana leaves co-expressing both proteins; GFP-Trap beads, 2 h at 4 °C, EWB buffer (50 mM Tris-HCl pH 7.5, 150 mM NaCl, 0.1% Triton X-100); blots with anti-GFP and anti-MYC
[2] = molecular target: T2, GFP-CAP-H (Arabidopsis thaliana); test: as above
[3] = molecular target: nYFP-BMI1A (Arabidopsis thaliana) (UniProt Q94AY3); test: split reporter; BiFC with nYFP and cYFP fusions, agroinfiltrated Nicotiana benthamiana leaves, imaged after 2-3 days by confocal microscopy
[4] = molecular target: BMI1B, yeast two-hybrid fusion (Arabidopsis thaliana) (UniProt Q9M9Y4); test: two-hybrid; bait and prey plasmids co-transformed into yeast strain Y2H Gold; interaction checked on SD medium minus Trp, Leu and His; 3-5 days at 28 °C
[5] = molecular target: BMI1C, yeast two-hybrid fusion (Arabidopsis thaliana) (UniProt Q9LS86); test: as above

binding [3]	binding [4]	binding [5]	Molecule	also measured
binds	–	–	cYFP-CAP-H2 (protein, UniProt Q9LUR0 1-683) MTSHGGGEVRGERIHTVQPERDLVANWEVDLSEKLEEYLLKICSGEITGNEEDGQIPVNFAEAALLLQGSVQVYSKKVEYLYNLVLRTLEFLSKQRDQEQSKGTSNENEASSSRQVDEEENDLFWNVDDIPVDTKNRLDSSVGGDTCPSQFVKPPANLVVLEGDCLDTSGDGGELESYLLATTHLYRDFILLDPCDAVAVNEFLGDNYGGKGRNSAHRGSSVRKSFHSSVGRSGGSARKSSVGKNQGTNVHLSPICGNGPNDQNCDQGSQPPVFEDNDHGFDMDNEYGGAMDFSDTDADEDDPWKPLNPYEPGKLKVKPFKKVKILKKIGWSITKDHMTSMFPLARPNGPISSELIEIWKMHGCASKDEQASQDIPYYEKLREMLVNGGNQPCGANGNYNDNDKDNHDEANNGDFHDFGEHDGDDAEHPFMDEDVLNMNDGGAAEFHNYDGFENGESNCQESLEDLCRSHLDALLANIAKSEKQTDLAARVSTWKQKIEQNLEEQELHPPFDIQEYGDRIINKLTVEESGNVETFTDLMKDQEKHEVARAFSALLQLVNNGDVDLEKPGNSTNEPMCYTAVKPFSVRLLKVHNRKNEKRGIHLPQKRAKSPITKGKSHESPPPKKRNTCSVSSQTRKVSLKISKINGVGVRCTPNSKKRRKGRSDDVTEVTEVASIEKSLGKL	–
–	no binding	no binding	CAP-H (Chromosome-Associated Protein H, condensin I kleisin subunit), yeast two-hybrid fusion (protein, UniProt Q564K3 1-671) MDESLTPNPKQKPASTTTRIQAPTSPFFLGSNDDRLEREQARAARAAASRRRSVIFARGSQPETESDPCFDKQQILELFQNCIKLASENKINQKNTWELNLIDHLCEIIKVEDENNTETNFQKASCTLEAGVKIYSMRVDSVHSEAYKVLGGITRAGHDDGGDHEDAAGAVENATNQKKQPEKKISPLSTLEPSFDALNVKKFDVAFAVDPLYHQTSAQFDEGGAKGLLLNNLGVYGGCQVLFDSQEIPGKLVSSANKHDKSETIDLSFVKECVEQMVLNMRKKDEIVPSLRAIINQFDEENQRPSDTFSCGQQTTESFDISHGNDASYADDDEGYENFGTSFDYEGQSGDVDENFGPNEAEPIYSNFHEEVEPASLQDMDSDDRLENVDDYLFLSLGISSKQNSWAGPDHWKYRKTKGPDVQPASEIKSSPPAKKTRKKKQAEPELDFAKALEEEMPDIFAPPKNPKTLLLPASRTPCQTKLPEDCHYQPENLIKLFLLPNVMCLGRRRRKNSGETSRQQPDDYEHGESWGNDNVYDDDDGPFDDNENDQSDAEDTNTLISQPRQVNKIDVQYDKASKQVDVQVLKETLWECLQESHQPPIQDEEHQQEPPESRSFKVLLASFPDDCQAAERTQDISPHLCFICLLHLANEHNLSLIGSQNLDDLTIHLA	–

The next lines start with the molecule.

Molecule	binding [3]	binding [4]	binding [5]	also measured
BMI1A-MYC (from UniProt Q94AY3)	–	–	–	binding [1]: binds; binding [2]: binds
cYFP-CAP-H (protein, UniProt Q564K3 1-671) MDESLTPNPKQKPASTTTRIQAPTSPFFLGSNDDRLEREQARAARAAASRRRSVIFARGSQPETESDPCFDKQQILELFQNCIKLASENKINQKNTWELNLIDHLCEIIKVEDENNTETNFQKASCTLEAGVKIYSMRVDSVHSEAYKVLGGITRAGHDDGGDHEDAAGAVENATNQKKQPEKKISPLSTLEPSFDALNVKKFDVAFAVDPLYHQTSAQFDEGGAKGLLLNNLGVYGGCQVLFDSQEIPGKLVSSANKHDKSETIDLSFVKECVEQMVLNMRKKDEIVPSLRAIINQFDEENQRPSDTFSCGQQTTESFDISHGNDASYADDDEGYENFGTSFDYEGQSGDVDENFGPNEAEPIYSNFHEEVEPASLQDMDSDDRLENVDDYLFLSLGISSKQNSWAGPDHWKYRKTKGPDVQPASEIKSSPPAKKTRKKKQAEPELDFAKALEEEMPDIFAPPKNPKTLLLPASRTPCQTKLPEDCHYQPENLIKLFLLPNVMCLGRRRRKNSGETSRQQPDDYEHGESWGNDNVYDDDDGPFDDNENDQSDAEDTNTLISQPRQVNKIDVQYDKASKQVDVQVLKETLWECLQESHQPPIQDEEHQQEPPESRSFKVLLASFPDDCQAAERTQDISPHLCFICLLHLANEHNLSLIGSQNLDDLTIHLA	binds	–	–	–
CAP-H2 (Chromosome-Associated Protein H2, condensin II kleisin subunit), yeast two-hybrid fusion (protein, UniProt Q9LUR0 1-683) MTSHGGGEVRGERIHTVQPERDLVANWEVDLSEKLEEYLLKICSGEITGNEEDGQIPVNFAEAALLLQGSVQVYSKKVEYLYNLVLRTLEFLSKQRDQEQSKGTSNENEASSSRQVDEEENDLFWNVDDIPVDTKNRLDSSVGGDTCPSQFVKPPANLVVLEGDCLDTSGDGGELESYLLATTHLYRDFILLDPCDAVAVNEFLGDNYGGKGRNSAHRGSSVRKSFHSSVGRSGGSARKSSVGKNQGTNVHLSPICGNGPNDQNCDQGSQPPVFEDNDHGFDMDNEYGGAMDFSDTDADEDDPWKPLNPYEPGKLKVKPFKKVKILKKIGWSITKDHMTSMFPLARPNGPISSELIEIWKMHGCASKDEQASQDIPYYEKLREMLVNGGNQPCGANGNYNDNDKDNHDEANNGDFHDFGEHDGDDAEHPFMDEDVLNMNDGGAAEFHNYDGFENGESNCQESLEDLCRSHLDALLANIAKSEKQTDLAARVSTWKQKIEQNLEEQELHPPFDIQEYGDRIINKLTVEESGNVETFTDLMKDQEKHEVARAFSALLQLVNNGDVDLEKPGNSTNEPMCYTAVKPFSVRLLKVHNRKNEKRGIHLPQKRAKSPITKGKSHESPPPKKRNTCSVSSQTRKVSLKISKINGVGVRCTPNSKKRRKGRSDDVTEVTEVASIEKSLGKL	–	no binding	no binding	–

No constants are given. Whether binding was seen depends on the method and setting. For some assays here: In cells and extracts the contact can be indirect. For some assays here: Binding calls can cover weak binding; strength is not graded here. Tags and fused reporters may be left off the sequences shown.
